{"sequences": {"note": "Protein sequences, listed by entry. Tags and fused reporters are not part of them. Lines headed by an entry give the natural chain unless they say otherwise; changes in a name come on top.", "UniProt Q02218": "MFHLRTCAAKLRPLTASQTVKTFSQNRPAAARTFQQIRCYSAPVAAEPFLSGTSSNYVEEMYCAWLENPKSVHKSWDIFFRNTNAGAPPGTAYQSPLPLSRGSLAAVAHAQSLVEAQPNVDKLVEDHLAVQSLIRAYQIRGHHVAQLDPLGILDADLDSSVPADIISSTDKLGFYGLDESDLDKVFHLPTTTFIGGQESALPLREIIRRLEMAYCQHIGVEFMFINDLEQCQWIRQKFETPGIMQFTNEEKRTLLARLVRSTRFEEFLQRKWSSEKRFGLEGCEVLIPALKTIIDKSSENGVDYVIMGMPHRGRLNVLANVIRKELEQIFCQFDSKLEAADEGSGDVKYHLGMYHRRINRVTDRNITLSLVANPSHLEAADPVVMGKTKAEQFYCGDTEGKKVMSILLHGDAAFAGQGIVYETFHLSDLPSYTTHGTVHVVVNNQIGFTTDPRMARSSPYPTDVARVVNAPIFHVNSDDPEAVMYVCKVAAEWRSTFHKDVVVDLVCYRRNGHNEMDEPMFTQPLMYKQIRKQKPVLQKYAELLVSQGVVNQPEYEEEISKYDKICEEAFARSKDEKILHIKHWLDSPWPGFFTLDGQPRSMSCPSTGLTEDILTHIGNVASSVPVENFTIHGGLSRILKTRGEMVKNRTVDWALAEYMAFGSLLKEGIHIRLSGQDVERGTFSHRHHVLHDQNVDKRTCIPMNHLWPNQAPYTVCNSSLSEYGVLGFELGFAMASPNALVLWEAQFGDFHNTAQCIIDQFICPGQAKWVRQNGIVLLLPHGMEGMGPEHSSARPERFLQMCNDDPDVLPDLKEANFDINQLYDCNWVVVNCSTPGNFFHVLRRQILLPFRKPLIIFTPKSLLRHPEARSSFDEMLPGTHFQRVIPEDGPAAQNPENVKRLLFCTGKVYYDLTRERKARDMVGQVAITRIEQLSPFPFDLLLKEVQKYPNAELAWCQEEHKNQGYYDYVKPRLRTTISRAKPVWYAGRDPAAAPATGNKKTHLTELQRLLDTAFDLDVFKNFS", "UniProt Q13438": "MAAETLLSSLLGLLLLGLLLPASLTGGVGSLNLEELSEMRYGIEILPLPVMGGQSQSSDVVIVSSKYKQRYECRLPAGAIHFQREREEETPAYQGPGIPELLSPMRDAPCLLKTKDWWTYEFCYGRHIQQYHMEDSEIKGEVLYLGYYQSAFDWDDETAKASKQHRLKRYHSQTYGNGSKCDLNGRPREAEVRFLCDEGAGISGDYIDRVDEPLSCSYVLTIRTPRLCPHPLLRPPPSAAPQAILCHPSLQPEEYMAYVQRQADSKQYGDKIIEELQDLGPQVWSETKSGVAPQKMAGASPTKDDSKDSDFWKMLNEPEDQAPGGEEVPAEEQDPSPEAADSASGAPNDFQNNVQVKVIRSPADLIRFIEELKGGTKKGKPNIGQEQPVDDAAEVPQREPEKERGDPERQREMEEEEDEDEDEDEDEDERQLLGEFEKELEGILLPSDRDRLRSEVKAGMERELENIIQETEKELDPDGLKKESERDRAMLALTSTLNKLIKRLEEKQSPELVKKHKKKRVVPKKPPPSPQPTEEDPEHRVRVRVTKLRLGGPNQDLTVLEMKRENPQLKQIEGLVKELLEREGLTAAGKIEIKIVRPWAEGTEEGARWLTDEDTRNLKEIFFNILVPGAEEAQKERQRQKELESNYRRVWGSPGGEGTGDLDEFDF", "UniProt Q86W56": "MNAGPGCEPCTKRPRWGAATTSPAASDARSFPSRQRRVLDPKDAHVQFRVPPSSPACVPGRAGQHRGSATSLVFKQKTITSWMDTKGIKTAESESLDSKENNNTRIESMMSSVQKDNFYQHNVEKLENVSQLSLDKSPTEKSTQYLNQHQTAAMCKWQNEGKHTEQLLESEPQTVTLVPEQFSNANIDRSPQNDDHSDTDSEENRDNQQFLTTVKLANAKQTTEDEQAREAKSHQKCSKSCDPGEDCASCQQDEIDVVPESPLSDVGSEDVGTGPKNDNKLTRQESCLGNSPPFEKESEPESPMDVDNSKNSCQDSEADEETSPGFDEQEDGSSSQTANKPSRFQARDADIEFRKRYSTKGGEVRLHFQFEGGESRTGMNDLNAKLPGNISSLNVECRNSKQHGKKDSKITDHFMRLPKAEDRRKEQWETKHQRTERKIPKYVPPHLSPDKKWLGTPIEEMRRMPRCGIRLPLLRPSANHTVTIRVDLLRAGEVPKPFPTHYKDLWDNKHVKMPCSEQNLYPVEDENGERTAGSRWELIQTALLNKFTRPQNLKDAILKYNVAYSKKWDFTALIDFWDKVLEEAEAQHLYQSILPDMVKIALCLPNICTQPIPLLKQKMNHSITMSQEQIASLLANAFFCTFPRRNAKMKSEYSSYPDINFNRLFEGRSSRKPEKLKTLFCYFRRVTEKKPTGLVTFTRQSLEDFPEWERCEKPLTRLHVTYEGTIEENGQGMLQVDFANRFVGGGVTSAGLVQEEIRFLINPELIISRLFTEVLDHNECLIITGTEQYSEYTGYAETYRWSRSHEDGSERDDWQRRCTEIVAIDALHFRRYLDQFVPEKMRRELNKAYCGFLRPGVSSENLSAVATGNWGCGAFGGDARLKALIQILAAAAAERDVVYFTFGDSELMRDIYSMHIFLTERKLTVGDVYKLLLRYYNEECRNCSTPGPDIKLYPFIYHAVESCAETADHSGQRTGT", "UniProt Q8TEW0": "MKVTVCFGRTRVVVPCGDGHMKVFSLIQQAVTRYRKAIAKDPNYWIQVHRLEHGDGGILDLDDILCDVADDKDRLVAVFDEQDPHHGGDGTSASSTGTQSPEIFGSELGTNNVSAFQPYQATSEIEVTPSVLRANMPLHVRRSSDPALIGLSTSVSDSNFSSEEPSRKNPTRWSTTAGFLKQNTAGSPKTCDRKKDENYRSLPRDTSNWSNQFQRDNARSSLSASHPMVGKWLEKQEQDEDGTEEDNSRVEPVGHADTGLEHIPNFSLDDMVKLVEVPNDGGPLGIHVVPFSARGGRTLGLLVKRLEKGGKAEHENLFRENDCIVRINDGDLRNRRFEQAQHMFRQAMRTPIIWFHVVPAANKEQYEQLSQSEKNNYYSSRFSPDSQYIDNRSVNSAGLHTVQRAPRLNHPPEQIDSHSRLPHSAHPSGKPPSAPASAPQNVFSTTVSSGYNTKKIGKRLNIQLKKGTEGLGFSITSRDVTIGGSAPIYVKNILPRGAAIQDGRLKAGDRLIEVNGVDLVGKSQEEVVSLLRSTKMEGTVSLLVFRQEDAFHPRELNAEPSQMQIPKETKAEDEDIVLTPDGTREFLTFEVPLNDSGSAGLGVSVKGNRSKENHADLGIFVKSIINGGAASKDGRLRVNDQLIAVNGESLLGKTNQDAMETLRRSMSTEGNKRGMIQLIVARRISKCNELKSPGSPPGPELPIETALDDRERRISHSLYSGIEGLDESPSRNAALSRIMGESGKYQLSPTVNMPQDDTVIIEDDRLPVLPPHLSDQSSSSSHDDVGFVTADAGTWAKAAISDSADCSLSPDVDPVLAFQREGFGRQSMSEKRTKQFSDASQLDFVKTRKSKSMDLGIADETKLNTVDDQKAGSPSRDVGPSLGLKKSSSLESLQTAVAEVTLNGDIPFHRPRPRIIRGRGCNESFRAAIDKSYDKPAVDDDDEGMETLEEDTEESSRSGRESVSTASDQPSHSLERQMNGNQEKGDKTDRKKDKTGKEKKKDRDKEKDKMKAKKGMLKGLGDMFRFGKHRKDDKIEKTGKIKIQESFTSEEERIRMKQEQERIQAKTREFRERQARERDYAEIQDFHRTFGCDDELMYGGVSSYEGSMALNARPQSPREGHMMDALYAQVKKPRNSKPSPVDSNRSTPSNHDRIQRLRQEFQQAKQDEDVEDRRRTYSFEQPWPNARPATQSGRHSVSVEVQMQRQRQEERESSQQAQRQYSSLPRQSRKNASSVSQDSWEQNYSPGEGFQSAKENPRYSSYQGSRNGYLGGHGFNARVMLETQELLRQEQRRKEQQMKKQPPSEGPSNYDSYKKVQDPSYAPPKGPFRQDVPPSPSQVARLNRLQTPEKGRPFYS", "UniProt O43482, whole entry, looked up": "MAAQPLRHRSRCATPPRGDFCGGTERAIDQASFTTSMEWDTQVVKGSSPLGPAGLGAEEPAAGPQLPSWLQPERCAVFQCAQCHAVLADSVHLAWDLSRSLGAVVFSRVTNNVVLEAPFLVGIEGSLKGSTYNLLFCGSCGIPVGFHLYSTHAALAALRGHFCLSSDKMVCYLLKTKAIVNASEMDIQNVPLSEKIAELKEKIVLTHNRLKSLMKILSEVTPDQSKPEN", "UniProt P35658": "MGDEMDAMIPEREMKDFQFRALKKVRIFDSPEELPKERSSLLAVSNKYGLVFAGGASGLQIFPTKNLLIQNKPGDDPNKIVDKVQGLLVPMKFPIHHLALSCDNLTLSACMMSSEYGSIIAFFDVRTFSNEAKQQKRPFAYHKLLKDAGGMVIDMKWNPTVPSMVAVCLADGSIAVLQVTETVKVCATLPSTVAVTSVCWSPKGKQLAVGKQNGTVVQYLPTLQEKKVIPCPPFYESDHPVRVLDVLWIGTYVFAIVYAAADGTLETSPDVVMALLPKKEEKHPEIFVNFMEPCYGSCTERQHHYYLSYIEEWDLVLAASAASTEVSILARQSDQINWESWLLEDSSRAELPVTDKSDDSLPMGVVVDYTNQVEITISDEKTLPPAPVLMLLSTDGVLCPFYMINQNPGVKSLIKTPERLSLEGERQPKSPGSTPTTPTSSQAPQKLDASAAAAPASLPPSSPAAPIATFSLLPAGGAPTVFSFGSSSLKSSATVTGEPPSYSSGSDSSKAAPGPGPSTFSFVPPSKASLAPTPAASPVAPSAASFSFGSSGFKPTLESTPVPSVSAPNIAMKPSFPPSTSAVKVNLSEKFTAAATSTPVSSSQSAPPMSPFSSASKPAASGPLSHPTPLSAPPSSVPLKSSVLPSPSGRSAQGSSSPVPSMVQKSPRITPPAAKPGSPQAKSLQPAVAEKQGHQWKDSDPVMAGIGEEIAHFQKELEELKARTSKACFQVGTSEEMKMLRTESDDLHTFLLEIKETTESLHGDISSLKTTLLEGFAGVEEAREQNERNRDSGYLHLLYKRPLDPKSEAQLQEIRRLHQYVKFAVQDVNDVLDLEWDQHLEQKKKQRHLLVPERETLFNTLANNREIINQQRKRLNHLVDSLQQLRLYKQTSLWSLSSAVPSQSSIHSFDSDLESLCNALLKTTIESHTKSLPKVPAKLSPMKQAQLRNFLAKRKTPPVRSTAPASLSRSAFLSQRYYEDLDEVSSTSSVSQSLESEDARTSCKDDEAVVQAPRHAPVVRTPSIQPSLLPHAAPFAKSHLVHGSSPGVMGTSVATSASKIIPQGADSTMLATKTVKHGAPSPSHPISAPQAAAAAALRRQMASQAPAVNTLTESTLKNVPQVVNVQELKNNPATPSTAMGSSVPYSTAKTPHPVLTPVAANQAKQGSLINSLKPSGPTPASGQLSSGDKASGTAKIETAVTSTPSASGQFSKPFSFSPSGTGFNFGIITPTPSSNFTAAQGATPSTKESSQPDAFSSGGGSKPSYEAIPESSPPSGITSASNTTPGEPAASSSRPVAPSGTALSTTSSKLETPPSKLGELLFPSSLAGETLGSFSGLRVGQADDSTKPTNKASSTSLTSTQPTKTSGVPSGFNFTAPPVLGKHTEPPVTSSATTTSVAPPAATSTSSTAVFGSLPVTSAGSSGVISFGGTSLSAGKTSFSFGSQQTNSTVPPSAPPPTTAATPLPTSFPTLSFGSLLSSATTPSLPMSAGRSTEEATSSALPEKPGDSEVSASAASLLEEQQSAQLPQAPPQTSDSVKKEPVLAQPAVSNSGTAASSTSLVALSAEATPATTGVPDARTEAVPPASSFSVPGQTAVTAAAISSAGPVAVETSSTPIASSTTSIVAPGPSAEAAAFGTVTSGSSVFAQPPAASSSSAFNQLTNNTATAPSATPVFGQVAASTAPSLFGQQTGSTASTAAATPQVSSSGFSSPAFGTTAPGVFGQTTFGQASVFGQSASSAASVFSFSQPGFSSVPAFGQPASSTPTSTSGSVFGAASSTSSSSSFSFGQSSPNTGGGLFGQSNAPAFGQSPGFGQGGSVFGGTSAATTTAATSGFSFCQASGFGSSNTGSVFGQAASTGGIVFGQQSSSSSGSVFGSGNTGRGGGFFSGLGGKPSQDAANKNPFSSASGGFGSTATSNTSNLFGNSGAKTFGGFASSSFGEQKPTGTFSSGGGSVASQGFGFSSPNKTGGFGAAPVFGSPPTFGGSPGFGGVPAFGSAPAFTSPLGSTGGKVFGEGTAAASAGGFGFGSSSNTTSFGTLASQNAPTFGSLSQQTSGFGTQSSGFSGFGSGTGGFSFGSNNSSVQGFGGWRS", "UniProt Q9NX40": "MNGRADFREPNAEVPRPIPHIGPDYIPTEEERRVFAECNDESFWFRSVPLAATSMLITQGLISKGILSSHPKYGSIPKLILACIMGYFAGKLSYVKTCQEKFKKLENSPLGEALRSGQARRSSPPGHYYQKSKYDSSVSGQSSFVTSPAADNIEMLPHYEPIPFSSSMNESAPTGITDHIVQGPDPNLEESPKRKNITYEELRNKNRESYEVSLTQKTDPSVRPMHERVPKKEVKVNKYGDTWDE"}, "source": "the supplement of paper PMC10849652", "note": "This is one part of the list."}
{"compound": "CC1=C(C2=C(C=C1)C(=O)C3=CC=CC=C3N2CCCN)C", "assay": "log2 fold change, soluble protein after heating vs DMSO (PISA); higher = thermal stabilisation; K562 lysate, 10 uM; active = over 0.2 and 3.5 SD of the protein, either way, in both replicates (recomputed)", "outline": "(§1)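 Dounce homogenisation of K562 pellets in PBS pH 7.4 with 1 mM MgCl2 produced a crude extract, used at 1 mg/mL protein. Exposure to 10 μM compound lasted 30 min, and aliquots were then heated for 3 min across 48°C-58°C, pooled and brought to 0.5% NP-40 at 4°C. The supernatant after 21,000xg for 90 min was quantified by TMTpro 16plex LC-MS/MS with channel sums equalised. Duplicate values are given as log-two fold change in thermal stability relative to solvent controls.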"}
{"target": "OBI1 (UniProt Q5W0B1)", "log2 fold change": "inactive: -0.054"}
{"target": "OBSL1 (UniProt O75147)", "log2 fold change": "inactive: -0.014"}
{"target": "OGDH (UniProt Q02218)", "log2 fold change": "inactive: 0.012"}
{"target": "PAAF1 (UniProt Q9BRP4)", "log2 fold change": "inactive: 0.018"}
{"target": "OS9 (UniProt Q13438)", "log2 fold change": "inactive: 0.019"}
{"target": "PARK7 (UniProt Q99497)", "log2 fold change": "inactive: -0.019"}
{"target": "PAGE1 (UniProt O75459)", "log2 fold change": "inactive: 0.018"}
{"target": "OSBPL3 isoform 2 (UniProt Q9H4L5)", "log2 fold change": "inactive: 0.02"}
{"target": "PAICS (UniProt E9PBS1)", "log2 fold change": "inactive: -0.267"}
{"target": "OSTF1 (UniProt Q92882)", "log2 fold change": "inactive: -0.014"}
{"target": "PAIP1 (UniProt Q9H074)", "log2 fold change": "inactive: 0.004"}
{"target": "OGFOD1 (UniProt Q8N543)", "log2 fold change": "inactive: 0.002"}
{"target": "P4HB (UniProt P07237)", "log2 fold change": "inactive: 0.017"}
{"target": "OGFR (UniProt Q9NZT2)", "log2 fold change": "inactive: -0.016"}
{"target": "OTUD4 (UniProt Q01804)", "log2 fold change": "inactive: -0.025"}
{"target": "PACC1 (UniProt Q9H813)", "log2 fold change": "inactive: -0.038"}
{"target": "NUP98 (UniProt P52948)", "log2 fold change": "inactive: 0.029"}
{"target": "OCRL (UniProt Q01968)", "log2 fold change": "inactive: 0.036"}
{"target": "OXR1 (UniProt Q8N573)", "log2 fold change": "inactive: -0.017"}
{"target": "PARG (UniProt Q86W56)", "log2 fold change": "inactive: -0.028"}
{"target": "PARD3 (UniProt Q8TEW0)", "log2 fold change": "inactive: 0.006"}
{"target": "OSBPL6 isoform 5 (UniProt Q9BZF3)", "log2 fold change": "inactive: 0.016"}
{"target": "OLA1 (UniProt Q9NTK5)", "log2 fold change": "inactive: 0.023"}
{"target": "P4HA1 (UniProt P13674)", "log2 fold change": "inactive: 0.003"}
{"target": "PANX1 (UniProt Q96RD7)", "log2 fold change": "inactive: 0.006"}
{"target": "OPLAH (UniProt O14841)", "log2 fold change": "inactive: -0.019"}
{"target": "OIP5 (UniProt O43482)", "log2 fold change": "inactive: 0.041"}
{"target": "OXCT1 (UniProt P55809)", "log2 fold change": "inactive: 0.01"}
{"target": "OSBPL11 (UniProt Q9BXB4)", "log2 fold change": "inactive: -0.056"}
{"target": "NUP214 (UniProt P35658)", "log2 fold change": "inactive: 0.008"}
{"target": "PARL (UniProt Q9H300)", "log2 fold change": "inactive: 0.034"}
{"target": "OAT (UniProt P04181)", "log2 fold change": "inactive: -0.018"}
{"target": "OGA (UniProt O60502)", "log2 fold change": "inactive: -0.015"}
{"target": "OCIAD1 (UniProt Q9NX40)", "log2 fold change": "inactive: 0"}
{"compound": "CC1=C(C=C(C=C1)NC(=O)C2=CC(=CC=C2)C(C)(C)C#N)NC3=CC4=C(C=C3)N=CN(C4=O)C", "assay": "log2 fold change, soluble protein after heating vs DMSO (PISA); higher = thermal stabilisation; K562 lysate, 10 uM; active = over 0.2 and 3.5 SD of the protein, either way, in both replicates (recomputed)", "outline": "as §1"}
{"target": "OBI1 (UniProt Q5W0B1)", "log2 fold change": "inactive: 0.036"}
{"target": "OBSL1 (UniProt O75147)", "log2 fold change": "inactive: -0.014"}
{"target": "OGDH (UniProt Q02218)", "log2 fold change": "inactive: -0.026"}
{"target": "PAAF1 (UniProt Q9BRP4)", "log2 fold change": "inactive: 0.041"}
{"target": "OS9 (UniProt Q13438)", "log2 fold change": "inactive: -0.007"}
{"target": "PARK7 (UniProt Q99497)", "log2 fold change": "inactive: 0.026"}
{"target": "PAGE1 (UniProt O75459)", "log2 fold change": "inactive: 0.005"}
{"target": "OSBPL3 isoform 2 (UniProt Q9H4L5)", "log2 fold change": "inactive: 0.015"}
{"target": "PAICS (UniProt E9PBS1)", "log2 fold change": "inactive: 0.09"}
{"target": "OSTF1 (UniProt Q92882)", "log2 fold change": "inactive: 0.046"}
{"target": "PAIP1 (UniProt Q9H074)", "log2 fold change": "inactive: 0.001"}
{"target": "OGFOD1 (UniProt Q8N543)", "log2 fold change": "inactive: -0.038"}
{"target": "P4HB (UniProt P07237)", "log2 fold change": "inactive: -0.027"}
{"target": "OGFR (UniProt Q9NZT2)", "log2 fold change": "inactive: -0.027"}
{"target": "OTUD4 (UniProt Q01804)", "log2 fold change": "inactive: -0.009"}
{"target": "PACC1 (UniProt Q9H813)", "log2 fold change": "inactive: -0.118"}
{"target": "NUP98 (UniProt P52948)", "log2 fold change": "inactive: -0.022"}
{"target": "OCRL (UniProt Q01968)", "log2 fold change": "inactive: 0.022"}
{"target": "OXR1 (UniProt Q8N573)", "log2 fold change": "inactive: 0.02"}
{"target": "PARG (UniProt Q86W56)", "log2 fold change": "inactive: 0.021"}
{"target": "PARD3 (UniProt Q8TEW0)", "log2 fold change": "inactive: 0.116"}
{"target": "OSBPL6 isoform 5 (UniProt Q9BZF3)", "log2 fold change": "inactive: 0.015"}
{"target": "OLA1 (UniProt Q9NTK5)", "log2 fold change": "inactive: -0.004"}
{"target": "P4HA1 (UniProt P13674)", "log2 fold change": "inactive: -0.001"}
{"target": "PANX1 (UniProt Q96RD7)", "log2 fold change": "inactive: -0.03"}
{"target": "OPLAH (UniProt O14841)", "log2 fold change": "inactive: -0.037"}
{"target": "OIP5 (UniProt O43482)", "log2 fold change": "inactive: 0.064"}
{"target": "OXCT1 (UniProt P55809)", "log2 fold change": "inactive: -0.005"}
{"target": "OSBPL11 (UniProt Q9BXB4)", "log2 fold change": "inactive: -0.023"}
{"target": "NUP214 (UniProt P35658)", "log2 fold change": "inactive: -0.062"}
{"target": "PARL (UniProt Q9H300)", "log2 fold change": "inactive: 0.033"}
{"target": "OAT (UniProt P04181)", "log2 fold change": "inactive: -0.006"}
{"target": "OGA (UniProt O60502)", "log2 fold change": "inactive: 0.002"}
{"target": "OCIAD1 (UniProt Q9NX40)", "log2 fold change": "inactive: 0.031"}
{"compound": "CC1=C(C=C(C=C1)NC(=O)C2=CC(=CC=C2)N(C)C)NC(=O)C3=CC=C(C=C3)O", "assay": "log2 fold change, soluble protein after heating vs DMSO (PISA); higher = thermal stabilisation; K562 lysate, 10 uM; active = over 0.2 and 3.5 SD of the protein, either way, in both replicates (recomputed)", "outline": "as §1"}
{"target": "OBI1 (UniProt Q5W0B1)", "log2 fold change": "inactive: -0.001"}
{"target": "OBSL1 (UniProt O75147)", "log2 fold change": "inactive: 0.003"}
{"target": "OGDH (UniProt Q02218)", "log2 fold change": "inactive: 0.018"}
{"target": "PAAF1 (UniProt Q9BRP4)", "log2 fold change": "inactive: -0.019"}
{"target": "OS9 (UniProt Q13438)", "log2 fold change": "inactive: 0.017"}
{"target": "PARK7 (UniProt Q99497)", "log2 fold change": "inactive: -0.033"}
{"target": "PAGE1 (UniProt O75459)", "log2 fold change": "inactive: 0.075"}
{"target": "OSBPL3 isoform 2 (UniProt Q9H4L5)", "log2 fold change": "inactive: 0.057"}
{"target": "PAICS (UniProt E9PBS1)", "log2 fold change": "inactive: -0.227"}
{"target": "OSTF1 (UniProt Q92882)", "log2 fold change": "inactive: -0.001"}
{"target": "PAIP1 (UniProt Q9H074)", "log2 fold change": "inactive: -0.009"}
{"target": "OGFOD1 (UniProt Q8N543)", "log2 fold change": "inactive: 0.021"}
{"target": "P4HB (UniProt P07237)", "log2 fold change": "inactive: -0.012"}
{"target": "OGFR (UniProt Q9NZT2)", "log2 fold change": "inactive: -0.003"}
{"target": "OTUD4 (UniProt Q01804)", "log2 fold change": "inactive: 0.002"}
{"target": "PACC1 (UniProt Q9H813)", "log2 fold change": "inactive: -0.044"}
{"target": "NUP98 (UniProt P52948)", "log2 fold change": "inactive: 0.008"}
{"target": "OCRL (UniProt Q01968)", "log2 fold change": "inactive: -0.002"}
{"target": "OXR1 (UniProt Q8N573)", "log2 fold change": "inactive: 0"}
{"target": "PARG (UniProt Q86W56)", "log2 fold change": "inactive: 0.061"}
{"target": "PARD3 (UniProt Q8TEW0)", "log2 fold change": "inactive: 0.01"}
{"target": "OSBPL6 isoform 5 (UniProt Q9BZF3)", "log2 fold change": "inactive: -0.013"}
{"target": "OLA1 (UniProt Q9NTK5)", "log2 fold change": "inactive: 0.029"}
{"target": "P4HA1 (UniProt P13674)", "log2 fold change": "inactive: -0.006"}
{"target": "PANX1 (UniProt Q96RD7)", "log2 fold change": "inactive: 0.025"}
{"target": "OPLAH (UniProt O14841)", "log2 fold change": "inactive: -0.001"}
{"target": "OIP5 (UniProt O43482)", "log2 fold change": "inactive: 0.008"}
{"target": "OXCT1 (UniProt P55809)", "log2 fold change": "inactive: 0.001"}
{"target": "OSBPL11 (UniProt Q9BXB4)", "log2 fold change": "inactive: -0.016"}
{"target": "NUP214 (UniProt P35658)", "log2 fold change": "inactive: 0.009"}
{"target": "PARL (UniProt Q9H300)", "log2 fold change": "inactive: 0.027"}
{"target": "OAT (UniProt P04181)", "log2 fold change": "inactive: 0.034"}
{"target": "OGA (UniProt O60502)", "log2 fold change": "inactive: 0.008"}
{"target": "OCIAD1 (UniProt Q9NX40)", "log2 fold change": "inactive: -0.021"}
